The list shows a part of the results. Single values are uncertain, as repeats are few or missing.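 Test system: a mixed pool of 41 HAP1 clones in which 61 cancer-associated proteins carry fluorescent tags inserted into introns, and each clone is identified from its image pattern. Read-outs are compared with DMSO-treated control wells. The BRD4 degrader dBET6 served as the positive control.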

The results in this text go back to the supplement of paper PMC11098740.

The assay addresses BRD4 (intron 10 mScarlet tag, HAP1) (UniProt O60885). Put plainly: BRD4 median nuclear fluorescence intensity change vs DMSO (log2 fold change); higher = more BRD4 protein. The note with it: 6 h.
As for `CNS(=O)(=O)c1ccc(C(=O)Nc2cc(CCc3ccccc3)ccn2)cc1` (10 µM), the “BRD4 median nuclear fluorescence intensity change (log2)” value was determined as 0.00794.
Then `CC(C)n1c(SCC(=O)Nc2ccc3c(c2)CCC3)nc2ccccc2c1=O` (10 µM), with 0.0303; and `COc1ccc(CC(=O)NCc2ccc(C(=O)N3CCCCC3)cc2)cc1` (10 µM), with 0.0816.
Then `O=C(CCCl)NC(=O)Nc1ccc2c(c1)OCO2` (10 µM), with 0.0184.
With `Cc1ccc(C2=Nn3c(COc4ccccc4F)nnc3SC2)c(C)c1` (0.1 µM), the “BRD4 median nuclear fluorescence intensity change (log2)” value was found to be 0.0207.
Next, `Cn1cnc([N+](=O)[O-])c1Sc1ncnc2[nH]cnc12` [azathioprine] (10 µM): 0.0116; `CCN(c1cc(-c2ccc(CN3CCOCC3)cc2)cc(C(=O)NCc2c(C)cc(C)[nH]c2=O)c1C)C1CCOCC1` (10 µM): 0.128; `Cc1ccc(NC(=O)C2CC(=O)N(c3cccc(Cl)c3)C2)nc1` (centres undefined) (10 µM): 0.00716.
Take `O=C(Nc1ccc(C(=O)N2CCCC2)cc1)c1ccc(Br)o1` (10 µM): the “BRD4 median nuclear fluorescence intensity change (log2)” value came out at 0.0565.
Then `Cc1nn(-c2nc3ccccc3[nH]2)c(=O)c2ccccc12` (1 µM), with -0.0541.
Next, `O=C(Nc1ccc(N2CCCC2=O)cc1)c1cccs1` (10 µM): -0.0887.
Then `O=C(Nc1ccc(N2CCCC2)cn1)c1cccc(Cl)c1` (10 µM), with -0.0922; and `COc1ccc(N(Cc2cccs2)S(=O)(=O)c2cnn(C)c2)cc1` (10 µM), with 0.0122; and `CCCCn1c(CCl)nc2c1c(=O)[nH]c(=O)n2Cc1ccccc1` (1 µM), with 0.0436.
As to `Cc1c(CCCl)c(Cl)n2c(nc3ccccc32)c1C#N` (10 µM), the “BRD4 median nuclear fluorescence intensity change (log2)” value amounted to 0.0428.
For `O=C(/C=C/c1cccc(Cl)c1)c1ccc(O)c(CCCl)c1` (10 µM), the “BRD4 median nuclear fluorescence intensity change (log2)” value was -0.131.
`CN(Cc1ccccc1)C(=O)CCCNc1ccnc2cc(Cl)ccc12` (10 µM): the “BRD4 median nuclear fluorescence intensity change (log2)” value was determined as 0.109.
`Cc1cc(C(=O)N(C)Cc2cnn(C)c2)c(C)n1Cc1ccccc1` (10 µM): the “BRD4 median nuclear fluorescence intensity change (log2)” value is 0.0568.
Regarding `O=C(Nc1cccnc1)c1ccc(Br)s1` (10 µM), the “BRD4 median nuclear fluorescence intensity change (log2)” value is -0.0289.
Then `O=C(Nc1ccc(-c2ccccc2)cn1)c1cccc(Cl)c1` (10 µM), with 0.0048; and `Cn1cnnc1NC(=O)c1cc2c(s1)-c1ccccc1CC2` (10 µM), with 0.0454.
Then `COc1ccc(-c2noc(CCl)n2)cc1OC` (0.1 µM), with 0.056; and `CN1CC(=O)Nc2cc(Cl)ccc21` (10 µM), with 0.0211.
Then `CCCCn1c(CCl)nc2cc(S(N)(=O)=O)ccc21` (10 µM), with 0.121; and `COc1cc(-c2noc(CCl)n2)ccc1OC(F)F` (10 µM), with 0.0682.
On to `COc1ccc(Cl)cc1NS(=O)(=O)c1ccc(OC)c(C)c1C` (10 µM), for which the “BRD4 median nuclear fluorescence intensity change (log2)” value came out at 0.0024.
Then `O=C(c1ccccc1)N1c2ccccc2C=CC1c1c[nH]c2ccccc12` (centres undefined) (0.1 µM), with 0.072; and `O=C(/C=C/c1ccc(Cl)cc1)c1ccc(O)c(CCCl)c1` (1 µM), with -0.0388; and `COc1ccc(CCNC(=O)c2cc3c(F)cccc3s2)cc1OC` (10 µM), with -0.17.
Next, `CC(C)c1ccccc1OCC(=O)Nc1ccc2[nH]c(=O)c(=O)[nH]c2c1` (10 µM): -0.0472; `O=c1[nH]c(=O)n([C@H]2C[C@H](O)[C@@H](CO)O2)cc1F` [floxuridine] (10 µM): 0.132.
Next, `COc1cc(NC(C)c2nc3sc(C)c(C)c3c(=O)[nH]2)cc(OC)c1` (centres undefined) (10 µM): 0.0807; `CCc1ccc(C(=O)Nc2sccc2C(N)=O)cc1` (10 µM): 0.00864.
As for `CC(Oc1ccc(Cl)cc1)C(=O)Nc1ccccc1-c1nc2ccccc2[nH]1` (centres undefined) (10 µM), the “BRD4 median nuclear fluorescence intensity change (log2)” value was 0.0726.
Then `NNC(=O)COc1ccc(C23CC4CC(CC(C4)C2)C3)cc1` (10 µM), with -0.0354; and `COc1ccc(S(=O)(=O)NCCc2c(C)[nH]c3ccc(C)cc23)c2ccccc12` (10 µM), with -0.00519; and `O=C(Cc1noc2ccccc12)Nc1ccc(Cn2ccccc2=O)cc1` (10 µM), with 0.0899.
Then `CC1(C)CCC(CN2CCN(c3ccc(C(=O)NS(=O)(=O)c4ccc(NCC5CCOCC5)c([N+](=O)[O-])c4)c(Oc4cnc5[nH]ccc5c4)c3)CC2)=C(c2ccc(Cl)cc2)C1` (10 µM), with 0.0158.
Next, `Clc1ccc(-c2csc3ncnc(Sc4nnnn4CC4CCCO4)c23)cc1` (centres undefined) (10 µM): -0.0997.
